This is one part of the list.

The chains behind the UniProt entries cited, without tags or fusion partners. Where a name states a change or a piece, a line headed by the entry shows the natural chain unless it says otherwise.
UniProt Q00796: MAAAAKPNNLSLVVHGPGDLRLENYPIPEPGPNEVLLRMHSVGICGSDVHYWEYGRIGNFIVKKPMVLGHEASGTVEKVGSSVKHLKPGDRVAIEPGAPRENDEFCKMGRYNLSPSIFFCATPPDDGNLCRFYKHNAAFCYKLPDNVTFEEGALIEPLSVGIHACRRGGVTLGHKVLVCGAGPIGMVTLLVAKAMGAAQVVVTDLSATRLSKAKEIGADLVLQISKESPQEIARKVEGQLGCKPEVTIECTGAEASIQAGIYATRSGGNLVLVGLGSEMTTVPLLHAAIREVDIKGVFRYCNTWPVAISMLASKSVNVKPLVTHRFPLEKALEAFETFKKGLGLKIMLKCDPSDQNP
UniProt P55769: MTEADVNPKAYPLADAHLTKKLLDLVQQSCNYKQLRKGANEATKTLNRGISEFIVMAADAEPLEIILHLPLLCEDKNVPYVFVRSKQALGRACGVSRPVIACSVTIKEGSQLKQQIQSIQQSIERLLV
UniProt Q96T58, whole entry, looked up: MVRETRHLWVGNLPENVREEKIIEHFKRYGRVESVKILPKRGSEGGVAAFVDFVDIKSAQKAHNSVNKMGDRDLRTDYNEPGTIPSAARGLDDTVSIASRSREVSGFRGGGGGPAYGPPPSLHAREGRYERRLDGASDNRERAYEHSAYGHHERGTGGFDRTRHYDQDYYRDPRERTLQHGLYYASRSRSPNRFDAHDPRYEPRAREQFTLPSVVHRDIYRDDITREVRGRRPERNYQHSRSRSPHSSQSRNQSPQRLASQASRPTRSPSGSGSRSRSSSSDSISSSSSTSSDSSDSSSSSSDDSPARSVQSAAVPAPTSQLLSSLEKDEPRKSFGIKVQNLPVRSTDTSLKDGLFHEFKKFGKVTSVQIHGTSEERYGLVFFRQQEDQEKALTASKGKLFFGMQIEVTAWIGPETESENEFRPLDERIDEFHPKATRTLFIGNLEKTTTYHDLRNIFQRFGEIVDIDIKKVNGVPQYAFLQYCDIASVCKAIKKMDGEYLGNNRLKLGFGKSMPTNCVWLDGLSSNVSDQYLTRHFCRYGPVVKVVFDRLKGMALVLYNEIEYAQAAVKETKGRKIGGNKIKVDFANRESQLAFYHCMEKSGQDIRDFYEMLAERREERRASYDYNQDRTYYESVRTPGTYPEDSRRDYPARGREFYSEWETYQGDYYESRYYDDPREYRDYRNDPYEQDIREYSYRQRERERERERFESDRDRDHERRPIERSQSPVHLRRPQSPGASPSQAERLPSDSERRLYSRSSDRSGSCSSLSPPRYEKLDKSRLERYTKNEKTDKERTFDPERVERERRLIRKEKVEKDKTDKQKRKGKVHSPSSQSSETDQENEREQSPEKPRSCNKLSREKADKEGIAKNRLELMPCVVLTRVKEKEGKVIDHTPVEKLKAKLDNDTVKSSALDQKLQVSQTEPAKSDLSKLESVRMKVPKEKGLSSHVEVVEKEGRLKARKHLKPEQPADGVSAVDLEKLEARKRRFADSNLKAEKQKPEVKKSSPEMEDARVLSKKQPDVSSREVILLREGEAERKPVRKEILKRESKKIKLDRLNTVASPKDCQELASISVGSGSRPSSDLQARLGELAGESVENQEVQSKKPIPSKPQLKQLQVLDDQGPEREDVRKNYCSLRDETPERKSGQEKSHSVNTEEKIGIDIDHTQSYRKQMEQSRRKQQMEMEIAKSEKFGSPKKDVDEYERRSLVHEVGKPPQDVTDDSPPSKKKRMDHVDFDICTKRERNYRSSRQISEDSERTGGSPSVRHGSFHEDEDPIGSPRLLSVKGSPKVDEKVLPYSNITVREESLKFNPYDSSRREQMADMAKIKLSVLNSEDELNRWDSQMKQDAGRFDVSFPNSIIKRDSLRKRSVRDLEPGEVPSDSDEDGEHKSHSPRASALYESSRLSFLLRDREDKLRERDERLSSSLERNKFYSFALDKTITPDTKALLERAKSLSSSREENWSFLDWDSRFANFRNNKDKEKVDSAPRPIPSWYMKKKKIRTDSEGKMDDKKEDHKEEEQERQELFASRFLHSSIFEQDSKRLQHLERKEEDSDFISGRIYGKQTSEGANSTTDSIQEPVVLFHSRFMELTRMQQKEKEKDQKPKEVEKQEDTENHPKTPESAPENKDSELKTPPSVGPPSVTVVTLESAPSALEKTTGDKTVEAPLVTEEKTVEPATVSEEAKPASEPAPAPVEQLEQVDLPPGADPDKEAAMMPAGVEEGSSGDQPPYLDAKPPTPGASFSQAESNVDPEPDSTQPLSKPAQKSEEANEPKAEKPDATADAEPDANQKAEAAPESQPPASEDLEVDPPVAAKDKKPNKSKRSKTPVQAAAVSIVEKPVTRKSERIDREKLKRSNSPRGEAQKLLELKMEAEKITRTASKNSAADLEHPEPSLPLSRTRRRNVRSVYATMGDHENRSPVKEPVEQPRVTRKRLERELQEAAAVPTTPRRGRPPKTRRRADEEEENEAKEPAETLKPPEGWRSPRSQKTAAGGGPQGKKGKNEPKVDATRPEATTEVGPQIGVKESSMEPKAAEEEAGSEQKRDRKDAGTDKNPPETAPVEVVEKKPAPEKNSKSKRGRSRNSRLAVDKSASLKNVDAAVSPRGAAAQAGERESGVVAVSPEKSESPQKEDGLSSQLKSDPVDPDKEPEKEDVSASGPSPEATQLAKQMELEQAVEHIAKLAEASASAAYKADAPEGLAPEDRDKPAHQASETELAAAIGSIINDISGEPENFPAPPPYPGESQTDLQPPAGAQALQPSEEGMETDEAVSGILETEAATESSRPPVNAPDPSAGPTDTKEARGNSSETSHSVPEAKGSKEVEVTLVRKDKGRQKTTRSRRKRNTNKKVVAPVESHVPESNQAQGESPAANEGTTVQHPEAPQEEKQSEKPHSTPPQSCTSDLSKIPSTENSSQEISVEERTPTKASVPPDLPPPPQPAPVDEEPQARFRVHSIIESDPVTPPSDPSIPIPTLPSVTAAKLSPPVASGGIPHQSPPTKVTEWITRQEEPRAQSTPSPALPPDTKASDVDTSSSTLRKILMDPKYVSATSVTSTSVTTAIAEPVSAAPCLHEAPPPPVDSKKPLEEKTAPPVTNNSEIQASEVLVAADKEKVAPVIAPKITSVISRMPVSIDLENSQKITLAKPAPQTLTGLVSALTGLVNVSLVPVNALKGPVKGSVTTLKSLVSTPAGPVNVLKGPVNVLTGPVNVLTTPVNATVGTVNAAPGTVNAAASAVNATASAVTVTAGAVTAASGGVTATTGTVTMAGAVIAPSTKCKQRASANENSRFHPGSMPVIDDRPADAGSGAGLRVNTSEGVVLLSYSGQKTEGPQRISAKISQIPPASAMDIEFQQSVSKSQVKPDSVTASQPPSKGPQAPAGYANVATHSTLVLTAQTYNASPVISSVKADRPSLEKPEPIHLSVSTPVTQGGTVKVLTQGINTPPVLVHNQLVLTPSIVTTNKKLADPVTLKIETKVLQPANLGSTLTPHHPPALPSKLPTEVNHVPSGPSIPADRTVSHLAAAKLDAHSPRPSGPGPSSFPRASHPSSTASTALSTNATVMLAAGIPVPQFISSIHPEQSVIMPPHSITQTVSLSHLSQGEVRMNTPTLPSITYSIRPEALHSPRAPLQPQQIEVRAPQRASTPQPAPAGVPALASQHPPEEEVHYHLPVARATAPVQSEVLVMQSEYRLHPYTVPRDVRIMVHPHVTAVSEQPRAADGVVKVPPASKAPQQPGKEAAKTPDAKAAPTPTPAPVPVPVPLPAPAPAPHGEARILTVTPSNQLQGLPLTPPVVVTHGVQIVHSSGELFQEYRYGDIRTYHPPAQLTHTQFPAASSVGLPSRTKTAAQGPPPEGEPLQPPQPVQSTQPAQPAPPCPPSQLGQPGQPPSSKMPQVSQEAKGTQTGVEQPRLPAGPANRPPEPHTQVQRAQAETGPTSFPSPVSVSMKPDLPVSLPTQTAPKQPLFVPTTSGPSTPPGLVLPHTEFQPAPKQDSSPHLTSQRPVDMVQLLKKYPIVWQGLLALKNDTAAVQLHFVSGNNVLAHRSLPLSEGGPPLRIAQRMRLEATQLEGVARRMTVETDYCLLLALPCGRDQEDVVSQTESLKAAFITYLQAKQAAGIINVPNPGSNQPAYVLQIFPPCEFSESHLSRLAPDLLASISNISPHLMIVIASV
UniProt Q8N5C6: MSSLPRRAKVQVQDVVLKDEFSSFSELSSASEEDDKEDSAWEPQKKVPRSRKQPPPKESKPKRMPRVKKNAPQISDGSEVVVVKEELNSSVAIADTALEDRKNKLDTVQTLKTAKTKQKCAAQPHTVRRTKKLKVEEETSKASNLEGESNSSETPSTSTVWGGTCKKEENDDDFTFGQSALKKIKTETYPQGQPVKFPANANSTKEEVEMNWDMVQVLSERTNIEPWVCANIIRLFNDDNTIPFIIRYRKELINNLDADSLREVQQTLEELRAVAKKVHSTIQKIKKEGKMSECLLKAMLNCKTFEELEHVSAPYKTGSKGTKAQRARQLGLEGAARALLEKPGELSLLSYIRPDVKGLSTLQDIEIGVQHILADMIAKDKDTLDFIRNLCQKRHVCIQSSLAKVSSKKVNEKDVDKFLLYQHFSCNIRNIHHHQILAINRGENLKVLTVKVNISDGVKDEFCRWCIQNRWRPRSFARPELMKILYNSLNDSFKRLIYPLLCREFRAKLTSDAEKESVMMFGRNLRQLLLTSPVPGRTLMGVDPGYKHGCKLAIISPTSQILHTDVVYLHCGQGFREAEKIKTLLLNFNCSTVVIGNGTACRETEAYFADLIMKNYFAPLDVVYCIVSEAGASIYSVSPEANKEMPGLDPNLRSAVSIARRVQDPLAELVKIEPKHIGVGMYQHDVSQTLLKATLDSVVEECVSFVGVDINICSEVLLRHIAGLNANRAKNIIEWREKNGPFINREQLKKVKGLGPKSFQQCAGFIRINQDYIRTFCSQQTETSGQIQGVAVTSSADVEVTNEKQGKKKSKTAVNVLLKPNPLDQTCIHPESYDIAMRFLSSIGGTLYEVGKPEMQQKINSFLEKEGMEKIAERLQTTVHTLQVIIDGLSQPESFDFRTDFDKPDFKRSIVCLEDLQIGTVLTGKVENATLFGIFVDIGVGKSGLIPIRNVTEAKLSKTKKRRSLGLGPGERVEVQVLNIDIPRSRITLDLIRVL
UniProt Q9Y5X3: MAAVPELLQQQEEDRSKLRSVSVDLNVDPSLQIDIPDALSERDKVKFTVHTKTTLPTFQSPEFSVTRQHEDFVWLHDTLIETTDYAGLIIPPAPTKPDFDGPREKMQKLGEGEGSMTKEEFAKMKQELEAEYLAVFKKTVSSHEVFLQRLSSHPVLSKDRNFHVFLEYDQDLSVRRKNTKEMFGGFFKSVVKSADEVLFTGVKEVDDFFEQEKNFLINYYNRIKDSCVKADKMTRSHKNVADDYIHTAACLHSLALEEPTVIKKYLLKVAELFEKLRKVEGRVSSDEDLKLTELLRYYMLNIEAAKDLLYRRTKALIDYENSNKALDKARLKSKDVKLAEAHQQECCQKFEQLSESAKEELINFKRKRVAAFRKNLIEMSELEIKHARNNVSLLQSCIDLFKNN
UniProt O15269: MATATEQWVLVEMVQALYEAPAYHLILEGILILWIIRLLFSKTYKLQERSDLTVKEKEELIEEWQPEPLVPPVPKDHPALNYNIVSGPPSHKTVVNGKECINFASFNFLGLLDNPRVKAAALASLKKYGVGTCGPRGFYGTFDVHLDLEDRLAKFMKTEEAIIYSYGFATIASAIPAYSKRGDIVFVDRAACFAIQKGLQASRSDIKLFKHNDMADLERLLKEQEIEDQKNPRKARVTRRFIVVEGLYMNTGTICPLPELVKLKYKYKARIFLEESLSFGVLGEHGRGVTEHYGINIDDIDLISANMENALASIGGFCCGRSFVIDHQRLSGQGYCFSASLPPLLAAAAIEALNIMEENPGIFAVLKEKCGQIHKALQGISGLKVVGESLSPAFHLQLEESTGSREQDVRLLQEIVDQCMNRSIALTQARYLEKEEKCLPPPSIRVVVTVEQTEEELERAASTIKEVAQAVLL

Compound in this test: Cc1cc(ccc1-c1ccccc1)C(=O)N1CCCN(CC1)C(=O)CCl [compound 10]
The test can be described thus: probe-labelled cysteine peptide fold change vs DMSO (competition) (log2 fold change); higher = less target engagement (more negative = stronger competition). As to conditions: THP-1, incubation time: 4 h.
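Also: competitive profiling in live THP-1 cells: cysteine peptides tagged with an iodoacetamide desthiobiotin (IA-DTB) probe, intensity after compound treatment relative to DMSO-treated cells.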

“SNX27_Q96L92_432_TCEGYNEIIFPHCACDSR (UniProt Q96L92)”: the “probe-labelled cysteine peptide fold change” value turned out to be 0.0233 (10 µM) and 0.111 (50 µM).

Turning to “SORL1_Q92673_1484_TCIPNWK (UniProt Q92673)”, the “probe-labelled cysteine peptide fold change” value by setting is: (10 µM) -0.439; (50 µM) -0.395.

As for “SP140L_Q9H930_429_VFHEDCHIPPVESEK (UniProt Q9H930)”, the “probe-labelled cysteine peptide fold change” value by setting is: (10 µM) -0.0288; (50 µM) 0.13.

Turning to “SORD_Q00796_120_YNLSPSIFFCATPPDDGNLCR (UniProt Q00796)”, the “probe-labelled cysteine peptide fold change” value by setting is: (10 µM) 0.0609; (50 µM) 0.316.

Regarding “SNU13_P55769_93+102_ACGVSRPVIACSVTIK (UniProt P55769)”, the “probe-labelled cysteine peptide fold change” value (10 µM) was determined as 0.229 and the “probe-labelled cysteine peptide fold change” value (50 µM) was -0.0692.

With “SPEN_Q96T58_1238_MDHVDFDICTK (UniProt Q96T58)”, the “probe-labelled cysteine peptide fold change” value (10 µM) is -0.128 and the “probe-labelled cysteine peptide fold change” value (50 µM) was -0.532.

Regarding “SRBD1_Q8N5C6_827_TAVNVLLKPNPLDQTCIHPESYDIAMR (UniProt Q8N5C6)”, the “probe-labelled cysteine peptide fold change” value (10 µM) is -0.0262 and the “probe-labelled cysteine peptide fold change” value (50 µM) was determined as 0.0387.

Consider “SPTAN1_Q13813_1454_MMLDQCLELQLFHRDCEQAENWMAAR (UniProt Q13813)”, for which the “probe-labelled cysteine peptide fold change” value by setting is: (10 µM) 0.453; (50 µM) -0.135.

On to “SRP68_Q9UHB9_586_QANLVHFPPGFQPIPCKPLFFDLALNHVAFPPLEDKLEQK (UniProt Q9UHB9)”, for which the “probe-labelled cysteine peptide fold change” value is -0.0926 (10 µM) and -0.793 (50 µM).

In the case of “SNX5_Q9Y5X3_346_LAEAHQQECCQK (UniProt Q9Y5X3)”, the “probe-labelled cysteine peptide fold change” value reads like this: (10 µM) -0.101; (50 µM) -0.226.

For “SPTLC1_O15269_192_AACFAIQK (UniProt O15269)”, the “probe-labelled cysteine peptide fold change” value reads like this: (10 µM) 0.0464; (50 µM) 0.0618.

As to “SPTAN1_Q13813_1444_MMLDQCLELQLFHR (UniProt Q13813)”, the “probe-labelled cysteine peptide fold change” value worked out at 0.116 (10 µM) and 0.12 (50 µM).

In the case of “SPTLC1_O15269_255_FIVVEGLYMNTGTICPLPELVK (UniProt O15269)”, the “probe-labelled cysteine peptide fold change” value was -0.208 (10 µM) and 0.00555 (50 µM).

Regarding “SPTLC1_O15269_100_ECINFASFNFLGLLDNPR (UniProt O15269)”, the “probe-labelled cysteine peptide fold change” value by setting is: (10 µM) -0.181; (50 µM) -0.00276.
